Data taken from article PMC8698288.
No constants are given. Whether binding was seen depends on the method and setting. In cells and extracts the contact can be indirect. These calls come from enrichment with a bait or labelling near it, and not all partners need be listed.

molecular target: FLAG-BirA*-MOB1 (Toxoplasma gondii MOB1 fused to the C-terminal end of FLAG-BirA*) (Toxoplasma gondii); test: proximity labelling; BioID: FLAG-BirA*-MOB1 (control: FLAG-BirA*) tachyzoites in HFF cells, 150 µM biotin for 56 h; lysate in sucrose-based lysis buffer on agarose-streptavidin beads overnight at 18 °C; nanoLC-MS/MS; three biological replicates

| Binder | binding |
| --- | --- |
| Hemimethylated DNA binding domain-containing protein TGME49_210778 (protein, UniProt S8GS10 1-609) MEDFLSIAHGNPLDGPMAETPRWHPAEWEAVLGNMESAVLKIDFSQSLGNWASIREQSTFNVTMADSTVVCTHPQRRDDDLFMEFPQSTQNAKSNGLTPKRADAEPKRLVSAFPEMRDYLRTARLRWIVDRCFQFKDGDASEWTYEICVGKKVTQFAGNQKAGKTIGKTLFEWGTYKIGHDQLWANGTLTQIYGNGTGGRQTEVFFECLDQYPTVTAIEEVRESELRMWVGASMFCDFRPTNPTPPLLEALLRPLEGWCANFTTTGFWSYEYCHPDSLVQFHKDSSGDVRDPMFLLGTLHTSTPSSTFMWKTHASADFPMLRGKGAGVNTNSRPKFRFLPVQLVDFPSELNRGREEKPQQVLAMELTKGTLCDSADVQRSTRVLFECPDDFATLATHQVMKVMETSPCHHELLIHTPLVCPHPRLLPPRPKEPQQVNCVPVESHQLDSPHVSEANHVKVTAGTAVDPGLEAIPSSYLPDGKISLNGSHFGMRQYKRSRSSRKSPAFRVGRLVRHRWSKYTAVVLSWDRSCEAPPDWTAKVYEHYPESSSHKPHYLLLVDQAAVREPQLPLFAYVPEVALEPAPAGQGLFRHPLTSYFFHHFSTHSLTSN | binds |
| Uncharacterized protein TGME49_265390 (protein, UniProt S8GGY5 1-529) MASSEGRPSPSSPSSLPSSSPSFSPSLSSSLFSPSFASVTSLENPPGAPSDAGAASIVALPPSSLGDILSSFTRETRDPRREQREDPRREQRGEALEQARGEAGAAREERQDSHRESRDERERRDLPTSGSLSAVSAHAPLHVVDRSFLRVPLECALRAVKANSRSLYRDVGVVLAYVLKGKMATQLAESSSVEEKINRLDLLIEKLKKIRDKAQHGNEESRNFLLRCQLRVRRLAEEPDILHVHSKLDFSFATYGDRVAWVVYEYLARSGMSLTAELLKEKLDLEPFADGEVHQEILDVLGGLLRESTEEARQWVDAHRAKLKKIGSLFESELHVQHVLELLKKKDAKTAVAYLKANVGPEDFARCVDIRKVVTLTALLEDPPPQYAALFGIERWHRISCLFLHTSAQVYGFSVKPTLVALLQAGFSALKSSVCEEQKSASCPTCLPEWAEYVRQVPTPHRVQSFLICPISGEVMDADNPPLASPDGHVYSTNAVRALAAAAPDGKTVVCPKTKQPYPLERFTRIYVT | binds |
| Uncharacterized protein TGME49_246990 (protein, UniProt S8G9E8 1-544) MRPWSLQTFVGKRRSRKGREPSEAEKSGRPGAEKRELPEPTAFPQGEEDADAPALAKPRSSASGLSSNMGGQGQSVLGEEPGALGGPESLREKAEAEPRDRTSHPRSLQSSASSKDPPRVRNDFSDSSRSRAEESQQSTRETVELSRKTTGRVKDKSQDGLPVSSSAASLKPGSESARGSAARRKPSLHGDLQSEASRVRRSKRSSESESGSDAPASRQSGELASADSRVGKPQSGRRNEERRRVLSGPDTEERQDAGEAGESAEGRPGVRQGKDGTLRVDRSASRDEGSGGRRRLSGSTRRSDDGGGARSTLSRDPIDDRSDAGSRAEGGRQRTRTSSSVLQEEGEGKRTETPEGRENASRDSDDKAFNAAMQPGTELKQLIETALRELDGLDKFLQRPDGVATTALEKTRAVHARVGRDTQRLMDVLEESKRAILEKAEKKRQANVSVKPDQAEQVQQALLDTEAREREKEKTGNLTTKLSKALGMKPTAAKRQLQRLAELRRMTADPSVAPAAPAKMAKATRRASSNVPKITAKNSGSVVV | binds |
| RNA recognition motif-containing protein TGME49_254210 (protein, UniProt S8FAB3 1-1123) MREGRTSRSLEGSYDERPLDRPRQKKVFIGNLPVDVTDADLRPVLEKAGPVRSLQIRSSRATGGGRPRSLFAHVEFESEQACEALFSVLDYRVFKGRTLRVEWCDDKQRQKQRGEAAGKRGRSAAFPSASVEREQPLEFADATSEPQRPPSLGRGGPGAPSAASDRRFGAQSSRGRPSGPDEEETHAAEPHGSDEGHFRLSGLKVFAPDGTITQGALEVASKLTRGDLRAILEEIQSLSAQMPATARKALSANPLLCHGLLHAQLALHMTPGEALNLEPLSPAQQETARKILIDRLSLELRLCGGRSPASLASSLCLDASFLPPESSSETVAADLSPDQTPLQESGYSGGGQLQRVCGASPSSGVAPVSEDSRPTQAPSRSAPARGPQAPPVSAGSSGGLSSSLACTESAVSSRADPSVPSPAVSVVPSLAVPSVSAQGVSSVSSEDVSSVSSQEVSSVSSPVASAVSGASFRAPPGSPDRGIGPKRADAGAAPDALPTQPQEAQLRQPLAEGFPAVSVSPGEPSPIRRPPTTEASGAGEGDKTPQESGGDTKGDTEQGVTRPSVSPHNVEAKASEEKRETSQGSGRAPPPSTGASLLTSGSSPTVASPRWPSTKSGDTPPIASTPLGGAASVCSSAPPLLPTPQLPPAFPLARNGREAAFESSRLLSGFPSVPAPARGVCLSVGATSRVPAPAPFAGAGELPGKALSTQTVPELEDRSKPLLANPPGFPLRPPRPAGASQPPGAFPTRAPPPARAGAAAFHNFSPVTPGRESSTPPTSTRPDFASAEEASRGLSQNYVERANVDGGGVAGGAARGPHHTPEGTVKLPGDLWASPVSPGSSFGAARPQASQQPLASTVRGTSLPAGGGMSVASPQDDAGCSQHLKRRRTEAPAGPQTQTTGIKEAPLTSRSGALFGVASSVLASPATRGTSGPVGAAGPSAHLGAGASPQVPQKSRRLSGTSSDSLPSFSSSLGAAACTAVAGEAGRSAHPQGAPGVSLQRQGLPPVAGGPAAGGESRRLQSVSSPQVLQQSAPAAVPQRSISAVGGDSDVPNNPVAAVLALEAAVEEAAPALVDEVMRVPTMLRNILTAPALQMLQWGEAERRQVLSIRKALRKRGCVVLDL | binds |
| Uncharacterized protein TGME49_213415 (protein, UniProt S8F8Z4 1-120) MAQGTLVNRIFEGARRLNSSAPCCLVGGSDQATAHTEDGVFGEGERKSGWKEVREVSRLSRGFIGAVAAAPWVFRRVSEEENKMLCSRKASFSERPRSGFLVTAFNAVSSKAGRESSSAR | binds |
| Uncharacterized protein TGME49_305610 (protein, UniProt S8GG32 1-481) MATTDGTECKRIIDPTPIDDEGVLTLIELDSQHPVIIAANTQIQQLLLAAVNKLNAEAAALEDRSRLSEESSEKSLEDEQVFNAAALLVSDDREKLCDQMKQCRILLDACNRVVVDLDSIDFSAMKVIWGDERSVRQSRKHLTQLVERMSDCLEKTHLFFKSVFGRLPELAPSPTASAAESSLPVAGVAASSATEGELPEKEESERTAEARGTWVAGDLADAHAPGAGRGCGRGEAFLGAGRGRGLVAGRGRGVAGPAGRGGGFGPGESSSEDEAGRVPTASGDPQAASRASPSSEPPAGEEGEADGERTETAGRKHPRADAEEPGVDKWGNRRWKRKPVAHVDWLLKCRTKLCELKERTVHKAISDVFIKERATQETIENLNHNASKLEVVASKPRAEITADDRRVFMRCIESYIAGLDKACALTAKQAMNKRQLMNLFESACKVEKLQTPEELLQEMRSTASLLQTFAFMPPSRDSDSD | binds |
| Uncharacterized protein TGME49_228630 (protein, UniProt S8GFY7 1-328) MAHSRERRSPSCQVSPLSPPTASGQRDVSVSERREKTCNAPCVSPFSRMKTSASPSFLLSNWFLIFLLFSLFCVIEGAKPKEGRPVTYGSAVSLVHVLSGFKLFSGKISWGSGSGQQAVTATPSGDKAAAANMLWIVSAPPSGMRRQPLDSPVMEAQMAGSKSSASSEPAPALVTPGAAGEPVRCGSVIFLEHGSSRGTLQATGASSPISSQKEVSVGAGRDTRVAGFKLVCANTKSEMWLTGDIVTFEHVRLGTNLQAKKDHQFTQQNCGRGCPIAGHIEVSVSNEKPRSSWGWSTPPDQWKASAGLMVNKEGEGLFDDLGFDHDEL | binds |
| Uncharacterized protein TGME49_225120 (protein, UniProt S8F0M5 1-242) MASRSALHDDLSEDDFLQRRPRKRTWGRTFSVSKTRTGPWGKALKVGTVAILGAAALGIAAKLGHSAAQIYRRQQSETPGGVIGTDPYGNRPPGQAGSPPPSFRSQAEADAAFFSDPLIRETMDSQLPSSSLRRVNEEAYEGNFVSASSAAPAWWLPEEEQNEPIPVVPLPDFSWMLRYVPQRVFDAVNTVNRWIDARERIPVRQDREFGERNQNVGERGLNWSSSLYNVIGPPLKFSPVTW | binds |
| Glutamate 5-kinase domain-containing protein TGME49_265010 (protein, UniProt S8EZC6 1-930) MLEGERKREDRGRRKTKEDGEETLECDCITAKGRHLLGPWLFLSASQSIFNVKTRAELEITDEMKREADAHSARATHGESHELPAERAAERSEKNRPEAEREERTADKSAMQGDNREEGKAEPSEKGDASPLLLPAGKEVKPGCLVVVKIGTSTLLTATQDRMNMNLSNLGKFVDTICELRMRGHTVVVVSSGAVGAGCVTLRLKQRPENLNTKQALAAVGQCRLMRLYEDLFSVREEKVAQVLLSRHDLLHQKSYQNFQAALKALLALDVIPIINENDSLATEQLRFGDNDTLAAHIAVAVDAHWLFILTDVDCLFDRNPHKYPDARPVAFVNRLTDVYAFLSDGACGAWGTGGMYTKVIASKIATNVGVHVAISNGKYPERILDMLEYARRSETTPTCPDTGSLLSLFPLRSPVREKHDHRRGCCRREATQGEATQGEATQGEAIQGEAIQGEATQGEATQGEAIQGEAIQGEATQGEATGGEATRGEATREVEEAKKKKEKKLARSCREAEKGAQRQRRAGGRGDGRAATGAPEAGERARDERAKSGGGQEEGEEISGKNLQEGEEREKRGNTDRANEWVHGAHASAEPGEVWGEEDRNPVLKEEESIEAGQKGQEQDEESPGENRAQGAFAGPRDGRGQPFSSLMICDNLQQMPFLGTVFIANDRRLHRKGDTRGWILSLPVRGKIFIDPGAVAALVQQKKSLFAAGVHHVSGEFAANDCVAIYITNFPRGSRRPSERPAGTKGSGPPGEQGSLTSGPSRRGQLPLERRNACASQSYGNQQRECLSRSSDEEAAFGFSFSNWCKSAAGSEGPPGGQTPFRAMGGLSESTVFAASPCPIECLEIARCISNVSSSELKVIKGRKSGEFRDLLGYAVDEEVAHRQHIVFTFMNGHEALKSFCLAKHAKFKLAGRTEPPFTQEADSRTGE | binds |
| Adhesion regulating molecule region protein, putative (TGME49_224110) (protein, UniProt S8G5J3 1-396) MQEDMVFSLGTSKVTERDVELSFSKCLLHKRPEDSVCYLSGFPDFWVHSVLRPAWTSTRRLSVFPATLFFRSIMAMNFFSSPEGDSVSPESVSFRAGKCRINGNLVSPDTRKGRLQIGEGEDGLTHVRWINRENQQTEDDLIVINDAYLERVPECTTGRVYCLRFTSSDKKMLFWMQEPDASKDHALIEQFNARAGGVPAASNGDTETGASGSSASGTQQTDSGPNAQGIQQLRQLLANYSESLRRARGQPSATPLSEVLNSQTLSRVADDEETVKELVDLMPEGCRTEGDVREALRSAQLAAPMNGLTQAIYTNSSPLLSSMGVTGEDRAAATSPDAMMAFAQALEAHYRPAGEGKEAMSNEAANAAEGNPAGEEKKENEENSEQDTSGGEKKAD | binds |
